Experiment in all cases: pull-down
Assay [1] concerns the target T1, HaloTag-fused bZIP63 (Group C bZIP) (Arabidopsis thaliana) (UniProt B9DGI8).
T1 sequence: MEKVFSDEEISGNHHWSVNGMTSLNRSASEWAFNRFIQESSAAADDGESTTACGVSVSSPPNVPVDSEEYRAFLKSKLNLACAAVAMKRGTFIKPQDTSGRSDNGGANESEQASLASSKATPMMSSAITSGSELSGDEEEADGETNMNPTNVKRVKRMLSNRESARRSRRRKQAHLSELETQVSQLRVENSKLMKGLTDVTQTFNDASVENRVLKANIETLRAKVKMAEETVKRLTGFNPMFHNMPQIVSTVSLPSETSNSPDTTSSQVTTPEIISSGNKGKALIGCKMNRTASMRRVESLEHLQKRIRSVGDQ

Assay [2] has as its target T2, HaloTag-fused bZIP10 (Group C bZIP) (Arabidopsis thaliana) (UniProt O22763).
T2 sequence: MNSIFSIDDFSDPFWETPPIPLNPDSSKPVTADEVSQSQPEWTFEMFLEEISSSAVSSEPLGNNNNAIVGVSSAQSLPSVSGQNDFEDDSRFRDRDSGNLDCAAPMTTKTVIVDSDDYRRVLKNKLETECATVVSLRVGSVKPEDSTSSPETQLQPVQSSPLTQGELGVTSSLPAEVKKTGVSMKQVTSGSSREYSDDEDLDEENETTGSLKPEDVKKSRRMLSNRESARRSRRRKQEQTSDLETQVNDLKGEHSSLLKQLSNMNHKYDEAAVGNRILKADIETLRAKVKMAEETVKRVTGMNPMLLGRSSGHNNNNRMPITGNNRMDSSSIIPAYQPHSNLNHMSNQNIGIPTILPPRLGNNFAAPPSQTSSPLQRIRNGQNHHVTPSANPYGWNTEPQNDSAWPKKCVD

Assay [3] concerns the target T3, HaloTag-fused bZIP9 (Group C bZIP) (Arabidopsis thaliana), Q9FUD3.
T3 chain: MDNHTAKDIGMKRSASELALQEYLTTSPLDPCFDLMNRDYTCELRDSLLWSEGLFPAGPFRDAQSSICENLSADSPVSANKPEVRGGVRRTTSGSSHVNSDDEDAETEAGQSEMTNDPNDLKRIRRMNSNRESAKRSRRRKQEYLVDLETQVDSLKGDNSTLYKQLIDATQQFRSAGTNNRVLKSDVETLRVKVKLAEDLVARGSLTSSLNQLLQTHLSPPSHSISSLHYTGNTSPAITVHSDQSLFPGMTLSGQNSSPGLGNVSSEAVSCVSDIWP
Conditions: remark: other sources report otherwise.

The target of assay [4] is T4, HaloTag-fused bZIP25 (Group C bZIP) (Arabidopsis thaliana) (UniProt Q9M1G6).
T4 sequence: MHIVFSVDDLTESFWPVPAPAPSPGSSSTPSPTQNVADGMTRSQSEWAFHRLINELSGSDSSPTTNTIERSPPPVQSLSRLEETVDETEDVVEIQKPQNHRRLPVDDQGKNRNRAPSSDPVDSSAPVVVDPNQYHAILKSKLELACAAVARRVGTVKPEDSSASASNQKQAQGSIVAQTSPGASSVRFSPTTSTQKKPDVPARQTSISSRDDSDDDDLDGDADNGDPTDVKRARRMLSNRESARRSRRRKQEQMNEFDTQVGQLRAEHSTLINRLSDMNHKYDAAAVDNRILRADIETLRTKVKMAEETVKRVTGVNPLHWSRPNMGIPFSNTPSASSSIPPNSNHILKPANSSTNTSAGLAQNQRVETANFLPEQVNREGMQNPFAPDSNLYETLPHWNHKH

Results are given in words; binding and its absence hold for the method and conditions named. Binding seen in cells or lysates may run through a third protein. Some binding calls cover weakened binding; strength is not graded here. Sequences can lack the tags named with a protein.

From paper doi:10.1101/2022.04.17.488518 come the findings set out here.

B1: SBPTag-fused bZIP11 (Group S1 bZIP) (protein, UniProt O65683 1-159)
chain: MESSSSGTTSSTIQTSSGSEESLMEQRKRKRMLSNRESARRSRMKKQKLLDDLTAQVNHLKKENTEIVTSVSITTQHYLTVEAENSVLRAQLDELNHRLQSLNDIIEFLDSSNNNNNNNMGMCSNPLVGLECDDFFVNQMNMSYIMNQPLMASSDALMY
Regarding B1, the binding entry in assay [1] and in assay [2] was “binds” each time.

B2: SBPTag-fused bZIP11 (Group S1 bZIP), O65683 1-159 (protein)
chain: B1 chain
In the case of B2, the binding result in assay [3] is listed as “binds”.

B3: SBPTag-fused bZIP2 (Group S1 bZIP) (protein, UniProt Q9SI15 1-171)
chain: MASSSSTYRSSSSSDGGNNNPSDSVVTVDERKRKRMLSNRESARRSRMRKQKHVDDLTAQINQLSNDNRQILNSLTVTSQLYMKIQAENSVLTAQMEELSTRLQSLNEIVDLVQSNGAGFGVDQIDGCGFDDRTVGIDGYYDDMNMMSNVNHWGGSVYTNQPIMANDINMY
Take B3: the binding entry in assay [1] and in assay [2] was “binds” throughout.

B4: SBPTag-fused bZIP2 (Group S1 bZIP), Q9SI15 1-171 (protein)
chain: B3 chain
For B4, the binding result in assay [3] is listed as “binds”.

B5: SBPTag-fused bZIP53 (Group S1 bZIP) (protein, UniProt Q9LZP8 1-146)
chain: MGSLQMQTSPESDNDPRYATVTDERKRKRMISNRESARRSRMRKQKQLGDLINEVTLLKNDNAKITEQVDEASKKYIEMESKNNVLRAQASELTDRLRSLNSVLEMVEEISGQALDIPEIPESMQNPWQMPCPMQPIRASADMFDC
As for B5, the binding entry in assay [4], in assay [1] and in assay [2] was “binds” each time.

B6: SBPTag-fused bZIP53 (Group S1 bZIP), Q9LZP8 1-146 (protein)
chain: B5 chain
Turning to B6, the binding entry in assay [3] is reported as “binds”.

B7: SBPTag-fused bZIP1 (Group S1 bZIP), Q9FGX2 1-145 (protein)
chain: MANAEKTSSGSDIDEKKRKRKLSNRESARRSRLKKQKLMEDTIHEISSLERRIKENSERCRAVKQRLDSVETENAGLRSEKIWLSSYVSDLENMIATTSLTLTQSGGGDCVDDQNANAGIAVGDCRRTPWKLSCGSLQPMASFKT
With B7, in assay [3], the binding result is reported as “binds”.

B8: SBPTag-fused bZIP1 (Group S1 bZIP) (protein, UniProt Q9FGX2 1-145)
chain: B7 chain
On to B8, for which the binding result in assay [1] and in assay [2] was “binds” throughout.
